Data set [1] deals with OsDREB1A-DBD E66A (Oryza sativa (rice)) (UniProt Q64MA1). Description: EMSA. The settings on record: 0.6 uM protein; EMSA: 0.01 uM FAM-dsDNA, 50 mM NaH2PO4, 150 mM NaCl, 5 mM DTT, 2% glycerol, pH 6.8, 15 min, room temperature; 12% native PAGE in 0.5x TBE; recombinant protein; residues 32-103; protein details: C-terminal His-tag (pET28). (In EMSA bound probe runs differently from free probe, usually more slowly.)

By UniProt entry, the sequences of proteins in these tests, tags left out. Residues count along the entry.
UniProt Q64MA1, 32-103 E66A: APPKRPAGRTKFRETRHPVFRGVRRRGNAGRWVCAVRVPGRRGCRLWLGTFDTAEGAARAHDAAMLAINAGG
UniProt Q64MA1, 32-103 R40A: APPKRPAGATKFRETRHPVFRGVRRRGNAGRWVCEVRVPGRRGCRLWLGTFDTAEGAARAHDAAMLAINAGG

Data set [2] concerns the target OsDREB1A-DBD R40A (Oryza sativa (rice)) (UniProt Q64MA1). Description: EMSA. The note with it: 0.6 uM protein; EMSA: 0.01 uM FAM-dsDNA, 50 mM NaH2PO4, 150 mM NaCl, 5 mM DTT, 2% glycerol, pH 6.8, 15 min, room temperature; 12% native PAGE in 0.5x TBE; recombinant protein; residues 32-103; protein details: C-terminal His-tag (pET28).

The comparison behind a weaker result is the experiment's own reference, which may not be listed here.

As for GTACGCCGACACT (double strand) [CRT], the binding result in data set [1] and in data set [2] was “binds more weakly” in each case.

Values taken from article PMC12249877.
